{"sequences": {"note": "Protein sequences, listed by entry. Tags and fused reporters are not part of them.", "UniProt O43865": "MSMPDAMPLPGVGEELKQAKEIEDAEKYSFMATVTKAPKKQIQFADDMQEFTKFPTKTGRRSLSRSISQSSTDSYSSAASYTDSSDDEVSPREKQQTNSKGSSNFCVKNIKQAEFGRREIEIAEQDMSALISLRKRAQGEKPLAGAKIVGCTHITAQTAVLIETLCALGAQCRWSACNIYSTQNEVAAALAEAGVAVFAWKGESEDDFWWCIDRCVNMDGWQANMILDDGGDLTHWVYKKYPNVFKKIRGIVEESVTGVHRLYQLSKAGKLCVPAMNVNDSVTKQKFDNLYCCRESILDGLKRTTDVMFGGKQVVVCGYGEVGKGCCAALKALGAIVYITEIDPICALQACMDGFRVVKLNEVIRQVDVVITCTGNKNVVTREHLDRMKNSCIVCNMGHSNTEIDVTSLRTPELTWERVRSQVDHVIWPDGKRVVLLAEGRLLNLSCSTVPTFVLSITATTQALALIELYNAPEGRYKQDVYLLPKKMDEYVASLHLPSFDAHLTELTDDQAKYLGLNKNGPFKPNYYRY"}, "source": "paper PMC8956953", "molecular_target": "endogenous AHCYL1/IRBIT of HEK293T cells (human (endogenous in HEK293T)) (UniProt O43865)", "test": "co-IP; HEK293T cells transiently transfected with HA-htau40, crosslinked with 2 mM dithiobis(succinimidyl propionate) for 30 min, nondenaturing lysis buffer; IP with anti-HA or anti-IRBIT, immunoblot", "note": "These are yes or no findings as the source states them, for the method shown. Binding seen in cells or lysates may run through a third protein. Some entries that bind do so weakly or less than the wild type."}
{"substance": "hemagglutinin (HA)-tagged htau40 overexpressed in HEK293T cells (from UniProt P10636-8 1-441)", "values": [{"measurement": "binding", "value": "binds"}]}
